Literature values as cited in patent US11219663B2, “Composition containing cyclic dipeptide and sweetening agent” (SUNTORY HOLDINGS LIMITED, priority 2015, dated 2022).

Conditions: sweetness degree of sucrose specified as 1; cited from earlier work

Compound	Sweetness degree
CC1=CC(=O)NS(=O)(=O)O1 [Acesulfame K, acesulfame potassium]	200
C=C1C[C@@]23CC[C@H]4[C@@](C)(CCC[C@@]4(C)C(=O)O[C@@H]4O[C@H](CO)[C@@H](O)[C@H](O)[C@H]4O)[C@@H]2CC[C@]1(O[C@@H]1O[C@H](CO)[C@@H](O)[C@H](O[C@@H]2O[C@H](CO)[C@@H](O)[C@H](O)[C@H]2O)[C@H]1O[C@@H]1O[C@H](CO)[C@@H](O)[C@H](O)[C@H]1O)C3 [RebA, rebaudioside A]	450
C=C1C[C@@]23CC[C@H]4[C@@](C)(CCC[C@@]4(C)C(=O)O[C@@H]4O[C@H](CO)[C@@H](O)[C@H](O)[C@H]4O[C@@H]4O[C@H](CO)[C@@H](O)[C@H](O)[C@H]4O)[C@@H]2CC[C@]1(O[C@@H]1O[C@H](CO)[C@@H](O)[C@H](O[C@@H]2O[C@H](CO)[C@@H](O)[C@H](O)[C@H]2O)[C@H]1O[C@@H]1O[C@H](CO)[C@@H](O)[C@H](O)[C@H]1O)C3 [RebD, rebaudioside D]	285
C=C1C[C@@]23CC[C@H]4[C@@](C)(CCC[C@@]4(C)C(=O)O[C@@H]4O[C@H](CO)[C@@H](O)[C@H](O)[C@H]4O)[C@@H]2CC[C@]1(O[C@@H]1O[C@H](CO)[C@@H](O)[C@H](O)[C@H]1O[C@@H]1O[C@H](CO)[C@@H](O)[C@H](O)[C@H]1O)C3 [Stevioside, stevioside]	300
OC[C@H]1O[C@H](O[C@]2(CCl)O[C@H](CCl)[C@@H](O)[C@@H]2O)[C@H](O)[C@@H](O)[C@H]1Cl [Sucralose, sucralose]	600
O=C(CO)[C@@H](O)[C@H](O)[C@H](O)CO [fructose]	1.73
OC[C@@H](O)[C@@H](O)[C@H](O)[C@H](O)CO [mannitol]	0.60
OC[C@@H](O)[C@H](O)[C@@H](O)CO [xylitol]	0.60
rebaudioside B [RebB]	300
rebaudioside C [RebC]	30
